Experimental data as given in article doi:10.1101/2023.02.10.527983.
Results are given in words; binding and its absence hold for the method and conditions named. Some entries that bind do so weakly or less than the wild type.

Protein sequences, listed by entry. Tags and fused reporters are not part of them.
UniProt P35222: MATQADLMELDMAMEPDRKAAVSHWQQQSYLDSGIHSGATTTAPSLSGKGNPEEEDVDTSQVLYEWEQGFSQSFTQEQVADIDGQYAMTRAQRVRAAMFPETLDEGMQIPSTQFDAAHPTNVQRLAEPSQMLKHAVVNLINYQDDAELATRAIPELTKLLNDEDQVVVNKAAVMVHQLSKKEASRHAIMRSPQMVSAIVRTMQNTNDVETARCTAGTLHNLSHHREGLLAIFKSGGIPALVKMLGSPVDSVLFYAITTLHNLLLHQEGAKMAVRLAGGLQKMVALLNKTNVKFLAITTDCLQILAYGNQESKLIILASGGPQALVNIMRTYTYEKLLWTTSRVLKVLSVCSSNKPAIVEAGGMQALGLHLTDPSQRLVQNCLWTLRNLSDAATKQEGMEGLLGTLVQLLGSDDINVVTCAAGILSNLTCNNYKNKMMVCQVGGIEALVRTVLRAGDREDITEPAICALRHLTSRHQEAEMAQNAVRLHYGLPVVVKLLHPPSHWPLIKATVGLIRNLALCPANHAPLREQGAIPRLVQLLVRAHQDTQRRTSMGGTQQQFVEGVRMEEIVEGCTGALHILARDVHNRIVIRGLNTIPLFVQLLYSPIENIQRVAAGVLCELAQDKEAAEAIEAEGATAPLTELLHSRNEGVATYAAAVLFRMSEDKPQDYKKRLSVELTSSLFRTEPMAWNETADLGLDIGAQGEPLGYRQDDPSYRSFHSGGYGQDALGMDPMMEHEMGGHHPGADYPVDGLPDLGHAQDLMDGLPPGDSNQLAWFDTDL

Biological target: T1, USP10 residues 7-21 peptide (USP10^7-21)
T1 sequence (peptide): QYIFGDFSPDEFNQF
Test: peptide or protein array

recombinant β-Catenin (from UniProt P35222 1-781)
binding: binds
